# PubChem BioAssay AID2283097 (EPA ToxCast)
# By UniProt entry, the sequences of proteins in these tests, tags left out. Where a name states a change or a piece, a line headed by the entry shows the natural chain unless it says otherwise.
# UniProt Q16678: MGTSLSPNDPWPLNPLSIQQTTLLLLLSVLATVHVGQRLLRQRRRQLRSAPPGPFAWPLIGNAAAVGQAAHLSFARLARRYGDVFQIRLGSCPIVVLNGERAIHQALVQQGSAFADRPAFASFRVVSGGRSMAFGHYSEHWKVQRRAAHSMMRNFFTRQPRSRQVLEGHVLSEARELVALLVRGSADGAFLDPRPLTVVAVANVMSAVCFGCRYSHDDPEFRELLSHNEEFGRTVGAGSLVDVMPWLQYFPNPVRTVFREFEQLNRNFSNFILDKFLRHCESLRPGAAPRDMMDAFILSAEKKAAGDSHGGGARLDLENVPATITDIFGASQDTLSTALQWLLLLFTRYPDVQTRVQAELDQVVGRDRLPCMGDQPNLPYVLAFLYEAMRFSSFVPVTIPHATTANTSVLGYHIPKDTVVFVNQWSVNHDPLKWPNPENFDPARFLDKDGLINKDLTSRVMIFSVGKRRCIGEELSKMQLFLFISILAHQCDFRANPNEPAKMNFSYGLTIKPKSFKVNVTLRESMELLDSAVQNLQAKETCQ
# This is a selection; strong and weak results do not stand in their true shares. Inconclusive results are not listed. Calls of active or inactive are those of the source. Rule for the calls: active = hit-call score of the fitted dose curve at least 0.9, where 1 is the maximum; inconclusive = response in the unintended direction; inactive = score below 0.9.
# Molecular target: human CYP1B1, CYP1B1 (gene 1545) (UniProt Q16678)
# Experiment: NVS_ADME_hCYP1B1: NovaScreen (NVS) CYP450-related Enzyme Activity (ADME) Assay for human CYP1B1
# Protocol: NVS_ADME_hCYP1B1 is a biochemical, single-readout assay that uses extracted gene-proteins in a cell-free assay. Measurements were taken 1 hour after chemical dosing in a 96-well plate.NVS_ADME_hCYP1B1 is one of one assay component(s) measured or calculated from the NVS_ADME_hCYP1B1 assay. It is designed to make measurements of enzyme activity, a form of enzyme reporter, as detected with fluorescence intensity signals by Fluorescence technology.Data from the assay component NVS_ADME_hCYP1B1 was analyzed into 1 assay endpoint. This assay endpoint, NVS_ADME_hCYP1B1, was analyzed in the positive analysis fitting direction relative to Acetonitrile as the negative control and baseline of activity. Using a type of enzyme reporter, loss-of-signal activity can be used to understand changes in the enzymatic activity as they relate to the gene CYP1B1. Furthermore, this assay endpoint can be referred to as a primary readout, because this assay has produced multiple assay endpoints where this one serves a enzymatic activity function. To generalize the intended target to other relatable targets, this assay endpoint is annotated to the cyp intended target family, where the subfamily is xenobiotic metabolism. […]
smiles,measurement,value
O=C(Nc1ccc([N+](=O)[O-])cc1Cl)c1cc(Cl)ccc1O,AC50,active: 10 µM
